Measurements as given in publication doi:10.1101/456418.
No constants are given. Whether binding was seen depends on the method and setting. Binding seen in cells or lysates may run through a third protein. Some entries that bind do so weakly or less than the wild type.

The chains behind the UniProt entries cited, without tags or fusion partners. Where a name states a change or a piece, a line headed by the entry shows the natural chain unless it says otherwise.
UniProt B6SBL8: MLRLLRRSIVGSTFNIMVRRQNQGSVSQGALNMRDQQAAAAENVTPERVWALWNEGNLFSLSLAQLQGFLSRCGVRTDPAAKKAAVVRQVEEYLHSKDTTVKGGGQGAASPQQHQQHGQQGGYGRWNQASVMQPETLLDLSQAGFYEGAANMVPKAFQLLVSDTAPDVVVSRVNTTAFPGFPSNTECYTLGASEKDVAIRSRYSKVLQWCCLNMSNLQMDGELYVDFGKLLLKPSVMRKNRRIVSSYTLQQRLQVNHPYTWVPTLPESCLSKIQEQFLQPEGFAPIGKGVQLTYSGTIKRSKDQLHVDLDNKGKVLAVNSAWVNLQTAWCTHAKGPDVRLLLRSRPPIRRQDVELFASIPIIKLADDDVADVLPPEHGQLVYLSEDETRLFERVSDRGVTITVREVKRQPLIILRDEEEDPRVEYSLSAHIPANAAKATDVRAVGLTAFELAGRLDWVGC
UniProt B6SBM0: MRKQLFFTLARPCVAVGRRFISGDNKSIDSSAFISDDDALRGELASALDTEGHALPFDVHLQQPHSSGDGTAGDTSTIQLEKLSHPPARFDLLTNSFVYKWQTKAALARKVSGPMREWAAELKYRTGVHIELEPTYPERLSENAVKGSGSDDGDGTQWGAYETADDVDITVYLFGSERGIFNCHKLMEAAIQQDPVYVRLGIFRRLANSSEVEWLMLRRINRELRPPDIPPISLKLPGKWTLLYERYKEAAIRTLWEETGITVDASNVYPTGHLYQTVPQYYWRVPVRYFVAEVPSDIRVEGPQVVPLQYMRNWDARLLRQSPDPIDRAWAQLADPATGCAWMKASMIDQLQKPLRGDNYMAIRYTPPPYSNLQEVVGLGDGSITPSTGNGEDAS

Target: GRBC1/2 (RNA editing substrate binding complex, RESC) (Trypanosoma brucei (endogenous in procyclic T. brucei)) (UniProt B6SBL8)
Test: co-sedimentation + native gel or EMSA

Substance: MERS1 NUDIX hydrolase (PPsome subunit) (from UniProt B6SBM0 1-395) (enzyme)
- binding: binds
